Results are given in words; binding and its absence hold for the method and conditions named. In cells and extracts the contact can be indirect. A yes stands for co-enrichment or nearness to the bait. Other partners may have been found.
B1: Arginine—tRNA ligase, cytoplasmic (protein, UniProt P54136 1-660)
chain: MDVLVSECSARLLQQEEEIKSLTAEIDRLKNCGCLGASPNLEQLQEENLKLKYRLNILRKSLQAERNKPTKNMINIISRLQEVFGHAIKAAYPDLENPPLLVTPSQQAKFGDYQCNSAMGISQMLKTKEQKVNPREIAENITKHLPDNECIEKVEIAGPGFINVHLRKDFVSEQLTSLLVNGVQLPALGENKKVIVDFSSPNIAKEMHVGHLRSTIIGESISRLFEFAGYDVLRLNHVGDWGTQFGMLIAHLQDKFPDYLTVSPPIGDLQVFYKESKKRFDTEEEFKKRAYQCVVLLQGKNPDITKAWKLICDVSRQELNKIYDALDVSLIERGESFYQDRMNDIVKEFEDRGFVQVDDGRKIVFVPGCSIPLTIVKSDGGYTYDTSDLAAIKQRLFEEKADMIIYVVDNGQSVHFQTIFAAAQMIGWYDPKVTRVFHAGFGVVLGEDKKKFKTRSGETVRLMDLLGEGLKRSMDKLKEKERDKVLTAEELNAAQTSVAYGCIKYADLSHNRLNDYIFSFDKMLDDRGNTAAYLLYAFTRIRSIARLANIDEEMLQKAARETKILLDHEKEWKLGRCILRFPEILQKILDDLFLHTLCDYIYELATAFTEFYDSCYCVEKDRQTGKILKVNMWRMLLCEAVAAVMAKGFDILGIKPVQRM
B2: LIM and SH3 domain protein 1 (protein, UniProt Q14847 1-261)
chain: MNPNCARCGKIVYPTEKVNCLDKFWHKACFHCETCKMTLNMKNYKGYEKKPYCNAHYPKQSFTMVADTPENLRLKQQSELQSQVRYKEEFEKNKGKGFSVVADTPELQRIKKTQDQISNIKYHEEFEKSRMGPSGGEGMEPERRDSQDGSSYRRPLEQQQPHHIPTSAPVYQQPQQQPVAQSYGGYKEPAAPVSIQRSAPGGGGKRYRAVYDYSAADEDEVSFQDGDTIVNVQQIDDGWMYGTVERTGDTGMLPANYVEAI
B3: Ataxin-2-like protein (protein, UniProt Q8WWM7 1-1075)
chain: MLKPQPLQQPSQPQQPPPTQQAVARRPPGGTSPPNGGLPGPLATSAAPPGPPAAASPCLGPVAAAGSGLRRGAEGILAPQPPPPQQHQERPGAAAIGSARGQSTGKGPPQSPVFEGVYNNSRMLHFLTAVVGSTCDVKVKNGTTYEGIFKTLSSKFELAVDAVHRKASEPAGGPRREDIVDTMVFKPSDVMLVHFRNVDFNYATKDKFTDSAIAMNSKVNGEHKEKVLQRWEGGDSNSDDYDLESDMSNGWDPNEMFKFNEENYGVKTTYDSSLSSYTVPLEKDNSEEFRQRELRAAQLAREIESSPQYRLRIAMENDDGRTEEEKHSAVQRQGSGRESPSLASREGKYIPLPQRVREGPRGGVRCSSSRGGRPGLSSLPPRGPHHLDNSSPGPGSEARGINGGPSRMSPKAQRPLRGAKTLSSPSNRPSGETSVPPPPAVGRMYPPRSPKSAAPAPISASCPEPPIGSAVPTSSASIPVTSSVSDPGVGSISPASPKISLAPTDVKELSTKEPGRTLEPQELARIAGKVPGLQNEQKRFQLEELRKFGAQFKLQPSSSPENSLDPFPPRILKEEPKGKEKEVDGLLTSEPMGSPVSSKTESVSDKEDKPPLAPSGGTEGPEQPPPPCPSQTGSPPVGLIKGEDKDEGPVAEQVKKSTLNPNAKEFNPTKPLLSVNKSTSTPTSPGPRTHSTPSIPVLTAGQSGLYSPQYISYIPQIHMGPAVQAPQMYPYPVSNSVPGQQGKYRGAKGSLPPQRSDQHQPASAPPMMQAAAAAGPPLVAATPYSSYIPYNPQQFPGQPAMMQPMAHYPSQPVFAPMLQSNPRMLTSGSHPQAIVSSSTPQYPSAEQPTPQALYATVHQSYPHHATQLHAHQPQPATTPTGSQPQSQHAAPSPVQHQAGQAPHLGSGQPQQNLYHPGALTGTPPSLPPGPSAQSPQSSFPQPAAVYAIHHQQLPHGFTNMAHVTQAHVQTGITAAPPPHPGAPHPPQVMLLHPPQSHGGPPQGAVPQSGVPALSASTPSPYPYIGHPQGEQPGQAPGFPGGADDRIREFSLAGGIWHGRAEGLQVGQDARVLGGE
B4: Ribosome-binding protein 1 (protein, UniProt Q9P2E9 1-1410)
chain: MDIYDTQTLGVVVFGGFMVVSAIGIFLVSTFSMKETSYEEALANQRKEMAKTHHQKVEKKKKEKTVEKKGKTKKKEEKPNGKIPDHDPAPNVTVLLREPVRAPAVAVAPTPVQPPIIVAPVATVPAMPQEKLASSPKDKKKKEKKVAKVEPAVSSVVNSIQVLTSKAAILETAPKEVPMVVVPPVGAKGNTPATGTTQGKKAEGTQNQSKKAEGAPNQGRKAEGTPNQGKKTEGTPNQGKKAEGTPNQGKKAEGTPNQGKKAEGAQNQGKKVDTTPNQGKKVEGAPTQGRKAEGAQNQAKKVEGAQNQGKKAEGAQNQGKKGEGAQNQGKKAEGAQNQGKKAEGAQNQGKKAEGAQNQGKKAEGAQNQGKKAEGAQNQGKKAEGAQNQGKKVEGAQNQGKKAEGAQNQGKKAEGAQNQGKKAEGAQNQGKKAEGAQNQGKKAEGAQNQGKKAEGAQNQGKKAEGAQNQGKKVEGAQNQGKKAEGAQNQGKKAEGAQNQGKKAEGAQNQGQKGEGAQNQGKKTEGAQGKKAERSPNQGKKGEGAPIQGKKADSVANQGTKVEGITNQGKKAEGSPSEGKKAEGSPNQGKKADAAANQGKKTESASVQGRNTDVAQSPEAPKQEAPAKKKSGSKKKGEPGPPDADGPLYLPYKTLVSTVGSMVFNEGEAQRLIEILSEKAGIIQDTWHKATQKGDPVAILKRQLEEKEKLLATEQEDAAVAKSKLRELNKEMAAEKAKAAAGEAKVKKQLVAREQEITAVQARMQASYREHVKEVQQLQGKIRTLQEQLENGPNTQLARLQQENSILRDALNQATSQVESKQNAELAKLRQELSKVSKELVEKSEAVRQDEQQRKALEAKAAAFEKQVLQLQASHRESEEALQKRLDEVSRELCHTQSSHASLRADAEKAQEQQQQMAELHSKLQSSEAEVRSKCEELSGLHGQLQEARAENSQLTERIRSIEALLEAGQARDAQDVQASQAEADQQQTRLKELESQVSGLEKEAIELREAVEQQKVKNNDLREKNWKAMEALATAEQACKEKLLSLTQAKEESEKQLCLIEAQTMEALLALLPELSVLAQQNYTEWLQDLKEKGPTLLKHPPAPAEPSSDLASKLREAEETQSTLQAECDQYRSILAETEGMLRDLQKSVEEEEQVWRAKVGAAEEELQKSRVTVKHLEEIVEKLKGELESSDQVREHTSHLEAELEKHMAAASAECQNYAKEVAGLRQLLLESQSQLDAAKSEAQKQSDELALVRQQLSEMKSHVEDGDIAGAPASSPEAPPAEQDPVQLKTQLEWTEAILEDEQTQRQKLTAEFEEAQTSACRLQEELEKLRTAGPLESSETEEASQLKERLEKEKKLTSDLGRAATRLQELLKTTQEQLAREKDTVKKLQEQLEKAEDGSSSKEGTSV
B5: ADP/ATP translocase 3 (protein, UniProt P12236 1-298)
chain: MTEQAISFAKDFLAGGIAAAISKTAVAPIERVKLLLQVQHASKQIAADKQYKGIVDCIVRIPKEQGVLSFWRGNLANVIRYFPTQALNFAFKDKYKQIFLGGVDKHTQFWRYFAGNLASGGAAGATSLCFVYPLDFARTRLAADVGKSGTEREFRGLGDCLVKITKSDGIRGLYQGFSVSVQGIIIYRAAYFGVYDTAKGMLPDPKNTHIVVSWMIAQTVTAVAGVVSYPFDTVRRRMMMQSGRKGADIMYTGTVDCWRKIFRDEGGKAFFKGAWSNVLRGMGGAFVLVLYDELKKVI
B6: RNA-binding protein 14 (protein, UniProt Q96PK6 1-669)
chain: MKIFVGNVDGADTTPEELAALFAPYGTVMSCAVMKQFAFVHMRENAGALRAIEALHGHELRPGRALVVEMSRPRPLNTWKIFVGNVSAACTSQELRSLFERRGRVIECDVVKDYAFVHMEKEADAKAAIAQLNGKEVKGKRINVELSTKGQKKGPGLAVQSGDKTKKPGAGDTAFPGTGGFSATFDYQQAFGNSTGGFDGQARQPTPPFFGRDRSPLRRSPPRASYVAPLTAQPATYRAQPSVSLGAAYRAQPSASLGVGYRTQPMTAQAASYRAQPSVSLGAPYRGQLASPSSQSAAASSLGPYGGAQPSASALSSYGGQAAAASSLNSYGAQGSSLASYGNQPSSYGAQAASSYGVRAAASSYNTQGAASSLGSYGAQAASYGAQSAASSLAYGAQAASYNAQPSASYNAQSAPYAAQQAASYSSQPAAYVAQPATAAAYASQPAAYAAQATTPMAGSYGAQPVVQTQLNSYGAQASMGLSGSYGAQSAAAATGSYGAAAAYGAQPSATLAAPYRTQSSASLAASYAAQQHPQAAASYRGQPGNAYDGAGQPSAAYLSMSQGAVANANSTPPPYERTRLSPPRASYDDPYKKAVAMSKRYGSDRRLAELSDYRRLSESQLSFRRSPTKSSLDYRRLPDAHSDYARYSGSYNDYLRAAQMHSGYQRRM
B7: Protein disulfide-isomerase A6 (protein, UniProt Q15084 20-440)
chain: LYSSSDDVIELTPSNFNREVIQSDSLWLVEFYAPWCGHCQRLTPEWKKAATALKDVVKVGAVDADKHHSLGGQYGVQGFPTIKIFGSNKNRPEDYQGGRTGEAIVDAALSALRQLVKDRLGGRSGGYSSGKQGRSDSSSKKDVIELTDDSFDKNVLDSEDVWMVEFYAPWCGHCKNLEPEWAAAASEVKEQTKGKVKLAAVDATVNQVLASRYGIRGFPTIKIFQKGESPVDYDGGRTRSDIVSRALDLFSDNAPPPELLEIINEDIAKRTCEEHQLCVVAVLPHILDTGAAGRNSYLEVLLKLADKYKKKMWGWLWTEAGAQSELETALGIGGFGYPAMAAINARKMKFALLKGSFSEQGINEFLRELSFGRGSTAPVGGGAFPTIVEREPWDGRDGELPVEDDIDLSDVELDDLGKDEL
B8: Heterogeneous nuclear ribonucleoprotein H3 (protein, UniProt P31942 1-346)
chain: MDWVMKHNGPNDASDGTVRLRGLPFGCSKEEIVQFFQGLEIVPNGITLTMDYQGRSTGEAFVQFASKEIAENALGKHKERIGHRYIEIFRSSRSEIKGFYDPPRRLLGQRPGPYDRPIGGRGGYYGAGRGSMYDRMRRGGDGYDGGYGGFDDYGGYNNYGYGNDGFDDRMRDGRGMGGHGYGGAGDASSGFHGGHFVHMRGLPFRATENDIANFFSPLNPIRVHIDIGADGRATGEADVEFVTHEDAVAAMSKDKNNMQHRYIELFLNSTPGGGSGMGGSGMGGYGRDGMDNQGGYGSVGRMGMGNNYSGGYGTPDGLGGYGRGGGGSGGYYGQGGMSGGGWRGMY
B9: Keratin, type II cuticular Hb1 (protein, UniProt Q14533 1-505)
chain: MTCGSGFGGRAFSCISACGPRPGRCCITAAPYRGISCYRGLTGGFGSHSVCGGFRAGSCGRSFGYRSGGVCGPSPPCITTVSVNESLLTPLNLEIDPNAQCVKQEEKEQIKSLNSRFAAFIDKVRFLEQQNKLLETKLQFYQNRECCQSNLEPLFEGYIETLRREAECVEADSGRLASELNHVQEVLEGYKKKYEEEVSLRATAENEFVALKKDVDCAYLRKSDLEANVEALIQEIDFLRRLYEEEILILQSHISDTSVVVKLDNSRDLNMDCIIAEIKAQYDDIVTRSRAEAESWYRSKCEEMKATVIRHGETLRRTKEEINELNRMIQRLTAEVENAKCQNSKLEAAVAQSEQQGEAALSDARCKLAELEGALQKAKQDMACLIREYQEVMNSKLGLDIEIATYRRLLEGEEQRLCEGIGAVNVCVSSSRGGVVCGDLCVSGSRPVTGSVCSAPCNGNVAVSTGLCAPCGQLNTTCGGGSCGVGSCGISSLGVGSCGSSCRKC

Amino acid sequences for entries named in this document (tags omitted).
UniProt P09992: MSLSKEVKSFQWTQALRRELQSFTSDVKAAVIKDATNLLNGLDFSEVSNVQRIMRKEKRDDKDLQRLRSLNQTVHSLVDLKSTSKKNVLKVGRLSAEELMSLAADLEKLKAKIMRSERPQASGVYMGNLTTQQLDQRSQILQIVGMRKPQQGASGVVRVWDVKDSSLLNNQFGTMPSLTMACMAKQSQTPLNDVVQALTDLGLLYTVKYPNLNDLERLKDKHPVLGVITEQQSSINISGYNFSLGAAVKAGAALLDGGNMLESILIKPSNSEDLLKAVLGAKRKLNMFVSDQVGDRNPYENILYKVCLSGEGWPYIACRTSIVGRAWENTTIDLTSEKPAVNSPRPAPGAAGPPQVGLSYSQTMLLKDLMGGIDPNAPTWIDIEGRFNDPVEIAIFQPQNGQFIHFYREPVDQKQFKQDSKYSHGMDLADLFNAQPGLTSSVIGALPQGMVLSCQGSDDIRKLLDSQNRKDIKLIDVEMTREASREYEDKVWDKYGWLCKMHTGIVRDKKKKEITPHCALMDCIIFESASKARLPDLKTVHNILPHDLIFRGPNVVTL

Target: Strep-tagged nucleoprotein (NP) of lymphocytic choriomeningitis virus, encoded by rLCMV/Strep-NP (lymphocytic choriomeningitis virus (LCMV), clone 13) (UniProt P09992)
Assay: affinity purification with mass spectrometry

Binder | binding
B1 | binds
B2 | binds
B3 | binds
B4 | binds
B5 | binds
B6 | binds
B7 | binds
B8 | binds
B9 | binds
